PubChem BioAssay AID743454 – Peter MacCallum Cancer Centre – 2014

- Aim: 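Knock-downs lowering viability or raising caspase 3/7 activity in vorinostat-treated resistant cells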 (primary screen)
- Cell system: human HCT116-VR colon cancer cells, selected for vorinostat resistance
- Knock-down reagent: siRNA pool against human genes, 40 nM siRNA pool
- Duration: vorinostat for 24 h, read-out about 72 h after transfection
- Conditions: vorinostat at 2.5 µM final
- Measured: 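Two measures, CellTiter-Fluor viability and luminescent caspase 3/7 activity, each as fold change against same-plate mock wells, mean of duplicates, then screen-wide robust z-score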
- Scale: viability robust z-score: higher = more viable cells than screen typical; caspase robust z-score: higher = more caspase 3/7 activity than screen typical
- Hit rule: 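a knock-down is a hit when classed RV1 or RV2 for lowered viability, or CA1 or CA2 for caspase activation; those lethal without drug were dropped; hits were retested singly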
Shown is an unselected part of about 18,000 deposited reagents. Of all reagents, 450 (2.5%) are marked active. 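Single biological run; no consistent viability z cut-off exists, so the class columns, not z-scores, define the calls.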 A number with no mark means an inactive call.

The first 6 records, to show the layout:
gene	viability hit class	caspase hit class	viability robust z-score	caspase robust z-score
FREM1	no change	no change	-0.77	-0.98
ZNF835	no change	no change	1.22	1.33
SHC4	no change	no change	-1.25	0.24
FAM47C	no change	no change	0.84	0.24
CFB	no change	no change	1.04	1.06
TEX2	no change	no change	-0.9	-0.31

Main list, from the first entry:
gene	viability hit class	caspase hit class	viability robust z-score	caspase robust z-score
FREM1	no change	no change	-0.77	-0.98
ZNF835	no change	no change	1.22	1.33
SHC4	no change	no change	-1.25	0.24
FAM47C	no change	no change	0.84	0.24
CFB	no change	no change	1.04	1.06
TEX2	no change	no change	-0.9	-0.31
RBMY1A1	no change	no change	0.88	-0.66
BBS9	no change	no change	0.08	-0.52
MGAT4B	no change	no change	1.01	-0.64
COX5B	no change	no change	1.19	-0.04
MAN1C1	no change	no change	0.05	0.93
VMAC	no change	no change	-1.2	2.89
ERP29	no change	no change	-0.42	0.92
VCX	no change	no change	0.4	-0.86
AMY1A	no change	no change	0.8	-0.34
NECAB1	no change	no change	-0.17	0.91
AARS1	no change	no change	-0.16	-0.57
GNG13	no change	no change	-0.48	-0.59
PSMC6	no change	no change	-3.82	-0.37
FCMR	no change	no change	-1.97	0.32
TNFRSF19	no change	no change	0.72	-0.73
DNAJC25	no change	no change	-0.3	3.12
SGF29	no change	no change	-0.05	4.4
CHID1	no change	no change	0.16	-0.34
EBNA1BP2	no change	no change	-2.73	1.92
TJP2	no change	no change	1.55	0.31
BIN1	no change	no change	-4.3	-0.42
TUFM	no change	no change	-0.02	-0.4
OR5M3	no change	no change	0.63	-0.34
OR8J1	no change	no change	1.21	0.74
CWH43	no change	no change	-0.67	-1.25
CASP3	no change	no change	0.02	-1.37
RECQL	no change	no change	1.26	-0.26
DCAF1	no change	no change	-1.68	-0.25
SPON1	no change	no change	1.34	1.03
FAM163B	no change	no change	-0.95	2.66
GRIA3	no change	no change	-0.16	1.56
TSPAN17	no change	no change	-0.44	0.49
TMEM263	no change	no change	-2.48	3.56
MX1	no change	no change	-0.27	0.45
RBM12B	no change	no change	-0.72	0.44
FCRL4	no change	no change	-1.75	-1.27
CABIN1	no change	no change	0.44	-0.01
ZP3	no change	no change	1.08	0.36
TXNDC17	no change	no change	-0.26	-0.69
CEACAM8	no change	no change	0.3	-0.72
GTPBP3	no change	no change	1.06	-0.48
RBFOX1	no change	no change	-0.34	0.07
FBXL8	no change	no change	0.81	0.1
AFDN-DT	no change	no change	0.52	-0.59
CRIPTO	no change	no change	-0.51	-0.59
TMEM187	no change	no change	-0.08	1.29
HPF1	no change	no change	-0.71	4.23
TNNT2	no change	no change	-1.2	-1.34
GLYATL1	no change	no change	-0.79	-0.91
LRRK2	no change	no change	0.66	-0.32
GPHRB	no change	no change	0.17	-0.42
